In patent US20260207585A1, “METHODS AND COMPOSITIONS FOR THE TREATMENT OF PARKINSON'S DISEASE, HUNTINGTON'S DISEASE, AMYOTROPHIC LATERAL SCLEROSIS, AND LEARNING DISORDERS” (Cedars-Sinai Medical Center, priority 2022, published 2026):
For at least one compound, name, drawing or mass did not settle the structure.

By UniProt entry, the sequences of proteins in these tests, tags left out. Where a name states a change or a piece, a line headed by the entry shows the natural chain unless it says otherwise.
UniProt Q9NQV7: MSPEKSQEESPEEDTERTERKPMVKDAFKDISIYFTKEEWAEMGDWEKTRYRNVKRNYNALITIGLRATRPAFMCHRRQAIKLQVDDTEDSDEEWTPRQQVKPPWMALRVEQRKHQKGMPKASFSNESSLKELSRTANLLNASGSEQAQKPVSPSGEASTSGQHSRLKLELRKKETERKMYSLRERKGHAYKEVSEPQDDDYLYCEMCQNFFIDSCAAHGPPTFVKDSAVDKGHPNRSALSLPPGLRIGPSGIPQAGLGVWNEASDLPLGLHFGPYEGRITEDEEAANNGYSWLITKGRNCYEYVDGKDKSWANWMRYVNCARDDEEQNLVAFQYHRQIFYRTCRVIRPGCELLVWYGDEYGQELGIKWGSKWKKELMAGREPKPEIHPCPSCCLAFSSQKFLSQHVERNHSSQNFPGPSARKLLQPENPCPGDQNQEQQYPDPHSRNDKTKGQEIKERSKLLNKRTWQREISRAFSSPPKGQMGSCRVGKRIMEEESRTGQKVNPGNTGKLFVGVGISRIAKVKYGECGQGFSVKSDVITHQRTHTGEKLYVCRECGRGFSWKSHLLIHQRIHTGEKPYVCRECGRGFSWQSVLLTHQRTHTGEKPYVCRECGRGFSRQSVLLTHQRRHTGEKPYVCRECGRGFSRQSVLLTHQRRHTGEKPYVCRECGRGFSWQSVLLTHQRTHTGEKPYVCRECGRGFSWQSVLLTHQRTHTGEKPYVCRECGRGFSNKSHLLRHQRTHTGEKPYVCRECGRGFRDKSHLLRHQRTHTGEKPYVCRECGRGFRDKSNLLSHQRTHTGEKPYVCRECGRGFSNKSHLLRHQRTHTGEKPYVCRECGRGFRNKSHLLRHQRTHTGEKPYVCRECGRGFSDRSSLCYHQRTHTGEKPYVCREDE

Target: PRDM9 (Homo sapiens, UniProt Q9NQV7)
Assay: Methyltransferase inhibition panel: PRDM9
Assay type: biochemical
Conditions: control compound; substrate Histone H3 5 μM
Experimental: The ability of ETP69 to inhibit methyltransferases was tested.

CN1C(=O)[C@@]23C[C@]4([C@]56C[C@@]78SS[C@@](CO)(C(=O)N7[C@H]5Nc5ccccc56)N(C)C8=O)c5ccccc5N[C@@H]4N2C(=O)[C@]1(CO)SS3 [Chaetocin, reference compound]
IC50: 4.69 µM
